Laboratory results taken from paper PMC8057602.

Columns and labels:
[1] = target: CcSSP1 (small secreted protein of Ciboria carunculoides), yeast two-hybrid bait in pGBKT7 (Ciboria carunculoides); assay: two-hybrid; Matchmaker Gold yeast two-hybrid system; CcSSP1 in pGBKT7 as bait, candidates in pGADT7 as prey; SD/-His/-Leu/-Trp/-Ade and the same + X-alpha-Gal + 200 ng/ml AbA + 10 mM 3-AT
[2] = target: CcSSP1 homolog of S. shiraiana (Scleromitrula shiraiana); assay: two-hybrid; in yeast; data not published; bait and prey not told

B1: AtPR1 (PR1 in Arabidopsis thaliana), yeast two-hybrid prey (protein, UniProt P33154 1-161)
chain: MNFTGYSRFLIVFVALVGALVLPSKAQDSPQDYLRVHNQARGAVGVGPMQWDERVAAYARSYAEQLRGNCRLIHSGGPYGENLAWGSGDLSGVSAVNMWVSEKANYNYAANTCNGVCGHYTQVVWRKSVRLGCAKVRCNNGGTIISCNYDPRGNYVNEKPY
[1]
  binding: binds
[2]
  binding: binds

Results are given in words; binding and its absence hold for the method and conditions named. Binding can be weak; no strength is given.
